Test results as given in article PMC8743267.
No constants are given. Whether binding was seen depends on the method and setting. Binding seen in cells or lysates may run through a third protein. Some entries that bind do so weakly or less than the wild type. For some assays here: Tags and fused reporters may be left off the sequences shown.

Chains of the proteins cited; added tags and fusions are not shown. Residues count along the entry.
UniProt P05362, residues 28-532: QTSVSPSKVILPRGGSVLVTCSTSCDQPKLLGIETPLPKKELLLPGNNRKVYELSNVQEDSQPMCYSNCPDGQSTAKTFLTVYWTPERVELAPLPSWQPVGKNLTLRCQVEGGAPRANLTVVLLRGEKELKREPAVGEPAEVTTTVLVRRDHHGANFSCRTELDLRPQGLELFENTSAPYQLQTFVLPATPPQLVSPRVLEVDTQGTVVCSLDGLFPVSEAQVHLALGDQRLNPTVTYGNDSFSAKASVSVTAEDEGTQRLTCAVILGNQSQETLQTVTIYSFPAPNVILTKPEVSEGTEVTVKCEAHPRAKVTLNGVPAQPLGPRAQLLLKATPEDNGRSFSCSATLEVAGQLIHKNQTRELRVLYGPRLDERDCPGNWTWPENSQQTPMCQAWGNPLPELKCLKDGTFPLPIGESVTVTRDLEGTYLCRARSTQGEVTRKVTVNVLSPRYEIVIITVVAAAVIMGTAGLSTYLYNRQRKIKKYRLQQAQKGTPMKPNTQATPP

T1: PLLP-GFP (human) (UniProt Q9Y342)
T1 sequence: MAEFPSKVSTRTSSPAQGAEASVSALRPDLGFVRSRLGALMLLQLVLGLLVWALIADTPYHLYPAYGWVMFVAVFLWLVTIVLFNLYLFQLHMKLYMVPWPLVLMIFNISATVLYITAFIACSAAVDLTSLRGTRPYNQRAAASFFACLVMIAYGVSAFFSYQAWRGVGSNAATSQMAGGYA

B1: plasmolipin (PLLP) (protein, UniProt Q9Y342 1-182)
chain: T1 sequence

Experiments:
[1] = target: T1, PLLP-GFP (human); experiment: co-IP; lysates of HepG2 cells stably expressing PLLP-GFP (TNE buffer: 50 mM Tris pH 7.4, 150 mM NaCl, 5 mM EDTA, with 1% Triton-X100), anti-GFP antibody on protein A-Sepharose, 3 h at 4 °C; rabbit IgG as control; western blot
[2] = target: Intercellular adhesion molecule (ICAM)-1 (human (endogenous in HepG2)) (UniProt P05362); experiment: co-IP; endogenous basolateral ICAM-1 labeled on HepG2 cells with anti-ICAM-1 antibody at 4 °C, cells incubated at 37 °C for the indicated times, lysed in TNE + TX100, post-nuclear supernatant incubated with protein G-Sepharose 3 h at 4 °C; ICAM-1_KO cells as control; western blot

Row | Molecule | binding [1] | binding [2]
1 | Intercellular adhesion molecule (ICAM)-1 (from UniProt P05362 28-532) (receptor) | binds | 
2 | B1 |  | binds
